# Results deposited as PubChem BioAssay AID602196 (INSERM, 2012)
# Purpose: 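Knock-downs that protect lung cancer cells from cisplatin or sensitise them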
# System: human A549 lung cancer cells
# Reagent: siRNA pair against human genes
# Duration: 48 h transfection before cisplatin; time from cisplatin to read-out not stated
# Conditions: cisplatin at a dose killing half of control-siRNA cells; exact dose and duration not given
# Read-out: 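Shift in cisplatin death relative to control siRNA, from -50 (all cells die) to +50 (no cells die); siRNAs harmful on their own scored 0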
# Scale: two-siRNA summed score (-2 to +2): higher = both siRNAs protect from cisplatin killing; -2 means both sensitise; mean protection from cisplatin (shift in death): higher = protection from cisplatin killing
# Hit rule: 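Each siRNA scores 0 if harmful alone by LDH or WST-1, otherwise +1 if it reduces and -1 if it increases cisplatin killing; a gene is active when both siRNAs agree (sum +2 or -2)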
# Calls: active = both siRNAs shift cisplatin killing the same way; inactive = no consistent shift, or siRNA harmful alone
# The deposit covers about 23,000 reagents; shown is a part drawn at random. Of all reagents, 455 (2%) got an active call. 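Active includes both protection and sensitisation; some change values fall well beyond the stated -50 to +50 range.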 Entries without a mark were called inactive. Not all columns of the deposit are shown. The record does not give: the amount of reagent.
The opening 4 entries, to show the layout:
gene knocked down,PubChem SID,two-siRNA summed score (-2 to +2),mean protection from cisplatin (shift in death) (%)
BORCS7,SID131506228,0,-1.8
AMBRA1,SID131507419,0,-0.2
ENOPH1,SID131518104,0,16.5
PEDS1-UBE2V1,SID131507626,0,0.1

The listing, from the first entry:
gene knocked down,PubChem SID,two-siRNA summed score (-2 to +2),mean protection from cisplatin (shift in death) (%)
BORCS7,SID131506228,0,-1.8
AMBRA1,SID131507419,0,-0.2
ENOPH1,SID131518104,0,16.5
PEDS1-UBE2V1,SID131507626,0,0.1
ZNF324,SID131503683,0,-8.5
FRMD6,SID131507390,0,-0.2
LMNTD1,SID131519583,1,6.5
TMPRSS11F,SID131523079,2 (active),19.1
MAB21L4,SID131501545,-1,-9.1
DNAJA3,SID131511722,0,4.7
FAM9A,SID131513217,0,6.3
TRIM14,SID131522040,1,16
ZNF404,SID131517255,0,12.8
PLCB3,SID131518370,0,18.8
DCTN1,SID131507672,0,0.2
LOC402463,SID131516831,0,11.7
NACC1,SID131506159,0,-1.9
PLK4,SID131515152,0,8.7
MYL1,SID131509995,0,2.7
ST6GALNAC1,SID131515991,0,10.1
MOBP,SID131515459,0,9.2
DCANP1,SID131505754,0,-2.6
LOC392549,SID131522692,1,21.9
ZNF646,SID131520779,1,11.1
OLFM3,SID131517095,0,12.4
OR5W2,SID131520144,1,8.8
CDK5R1,SID131509201,0,1.9
MRPL57,SID131513406,0,6.6
TCTN2,SID131517983,0,15.8
LOC441622,SID131517353,0,13.1
SH3GLB1,SID131515947,0,9.9
ITGAE,SID131501245,-1,-11.1
ZNF679,SID131504405,0,-5.5
OR5D18,SID131512001,0,5
DUSP7,SID131501993,-1,-6
MAPK8IP1,SID131510454,0,3.3
LOC389268,SID131513760,0,7
CHDH,SID131506366,0,-1.6
LOC133748,SID131512111,0,5.1
HTR2A,SID131519759,1,7.3
GPR37,SID131504087,0,-6.6
TWF2,SID131508755,0,1.4
PURG,SID131520701,1,10.8
LOC440584,SID131511428,0,4.3
SLURP1,SID131517121,0,12.5
CBLIF,SID131501985,-1,-6.1
LRRC70,SID131507610,0,0.1
LOC388623,SID131510832,0,3.7
SLFN12,SID131504436,0,-5.4
ZNF284,SID131518310,0,18.2
TSPAN5,SID131510643,0,3.5
LOC442652,SID131507866,0,0.4
RBBP8,SID131520423,1,9.8
ZNF83,SID131509409,0,2.1
SMAD4,SID131516856,0,11.8
AQP5,SID131501594,-1,-8.8
STRN3,SID131513293,0,6.4
